Results are given in words; binding and its absence hold for the method and conditions named. For some assays here: In cells and extracts the contact can be indirect. Some results given as binding are weak or reduced against the parent protein; the word gives no strength. For some assays here: Tags and fused reporters may be left off the sequences shown.

Chains of the proteins cited; added tags and fusions are not shown. Lines headed by an entry give the natural chain unless they say otherwise; changes in a name come on top.
UniProt Q8N163: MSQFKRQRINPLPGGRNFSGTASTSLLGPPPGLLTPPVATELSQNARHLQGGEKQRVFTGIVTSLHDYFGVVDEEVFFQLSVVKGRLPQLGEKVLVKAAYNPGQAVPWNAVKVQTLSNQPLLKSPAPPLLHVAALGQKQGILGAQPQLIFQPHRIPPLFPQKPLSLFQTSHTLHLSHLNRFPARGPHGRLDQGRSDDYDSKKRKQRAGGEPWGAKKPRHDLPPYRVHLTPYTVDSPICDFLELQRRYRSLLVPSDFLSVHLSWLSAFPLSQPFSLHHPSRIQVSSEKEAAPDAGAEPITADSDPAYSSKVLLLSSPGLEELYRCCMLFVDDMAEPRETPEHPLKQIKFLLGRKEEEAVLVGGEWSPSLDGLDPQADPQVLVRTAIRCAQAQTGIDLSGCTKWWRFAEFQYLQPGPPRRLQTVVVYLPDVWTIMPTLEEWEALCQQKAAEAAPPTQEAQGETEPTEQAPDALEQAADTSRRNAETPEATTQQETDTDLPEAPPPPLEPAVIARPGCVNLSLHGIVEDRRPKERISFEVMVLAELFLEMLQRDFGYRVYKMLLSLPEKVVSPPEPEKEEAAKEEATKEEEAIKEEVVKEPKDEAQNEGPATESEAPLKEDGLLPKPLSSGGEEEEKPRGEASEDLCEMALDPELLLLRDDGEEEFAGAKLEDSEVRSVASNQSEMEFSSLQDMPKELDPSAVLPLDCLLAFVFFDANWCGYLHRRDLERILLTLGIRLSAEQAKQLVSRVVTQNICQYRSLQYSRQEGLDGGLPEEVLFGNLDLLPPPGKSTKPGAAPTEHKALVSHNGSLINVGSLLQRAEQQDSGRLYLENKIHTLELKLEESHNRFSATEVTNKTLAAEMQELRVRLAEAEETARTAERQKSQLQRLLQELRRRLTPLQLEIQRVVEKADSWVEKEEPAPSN

The values below come from article PMC9377797, “Hypoxia-induced proteasomal degradation of DBC1 by SIAH2 in breast cancer progression” (eLife, 2022).

The target of one assay is T1, GST-SIAH2 (human) (UniProt O43255).
T1 sequence: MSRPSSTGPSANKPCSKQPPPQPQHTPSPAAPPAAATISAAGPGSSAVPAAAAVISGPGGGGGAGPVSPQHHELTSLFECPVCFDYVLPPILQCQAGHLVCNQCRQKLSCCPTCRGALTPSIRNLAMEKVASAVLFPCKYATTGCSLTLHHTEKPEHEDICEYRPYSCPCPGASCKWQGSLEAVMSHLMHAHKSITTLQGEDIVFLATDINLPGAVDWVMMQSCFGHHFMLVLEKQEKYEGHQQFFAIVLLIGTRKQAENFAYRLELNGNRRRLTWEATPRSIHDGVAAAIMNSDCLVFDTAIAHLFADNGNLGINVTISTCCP
As to the kind of experiment: pull-down; GST-SIAH2 and His-DBC1 proteins from E. coli incubated in vitro overnight, GST beads for 2 hr at 4°C; blotted with an anti-DBC1 antibody; both purified.

For assay [1], the target named is endogenous DBC1 (human (endogenous in MDA-MB-231, MCF10A, MCF7, HEK293T)) (UniProt Q8N163). The assay is described as follows: co-IP; endogenous proteins in MDA-MB-231, MCF10A or MCF7 cells; normoxia or hypoxia, MG132 (10 μM), in some experiments doramapimod (1 μM) or SIAH2 knockout; immunoprecipitation with anti-DBC1 antibody, Western blotting. A general note: In western blotting, separated proteins are transferred to a membrane and probed.

The target of another assay is Myc-DBC1 (human) (UniProt Q8N163). As to the kind of experiment: co-IP; transfected HEK293T cells; IP lysis buffer (150 mM NaCl, 20 mM Tris pH 7.4, 1 mM EGTA, 1 mM EDTA, 1% NP-40, 10% glycerol); immunoprecipitation with anti-Flag or anti-Myc antibody overnight at 4°C, Western blotting.
Another assay has as its target His-DBC1 (human) (UniProt Q8N163). The assay is described as follows: pull-down; purified His-tagged DBC1 used for His affinity isolation of endogenous OTUD5 from MCF7 cell lysates; blotted with an anti-OTUD5 antibody; only the target purified.

For “C-terminal half of His-DBC1 (462–923) (from UniProt Q8N163 462-923) (domain or fragment)”, in the assay with GST-SIAH2 (human), the binding result is “no binding”.

B1: GST-SIAH2 (enzyme, human, UniProt O43255 1-324, looked up)
chain: MSRPSSTGPSANKPCSKQPPPQPQHTPSPAAPPAAATISAAGPGSSAVPAAAAVISGPGGGGGAGPVSPQHHELTSLFECPVCFDYVLPPILQCQAGHLVCNQCRQKLSCCPTCRGALTPSIRNLAMEKVASAVLFPCKYATTGCSLTLHHTEKPEHEDICEYRPYSCPCPGASCKWQGSLEAVMSHLMHAHKSITTLQGEDIVFLATDINLPGAVDWVMMQSCFGHHFMLVLEKQEKYEGHQQFFAIVLLIGTRKQAENFAYRLELNGNRRRLTWEATPRSIHDGVAAAIMNSDCLVFDTAIAHLFADNGNLGINVTISTCCP
notes: E3 ubiquitin ligase SIAH2, human, wild type; also called GST-tagged SIAH2; purified glutathione S-transferase (GST) SIAH2; source: E. coli BL21, purified
On to B1, for which the binding result in assay [1] is on record as “binds”.

B2: Flag-OTUD5 (enzyme, UniProt Q96G74 1-571)
chain: MTILPKKKPPPPDADPANEPPPPGPMPPAPRRGGGVGVGGGGTGVGGGDRDRDSGVVGARPRASPPPQGPLPGPPGALHRWALAVPPGAVAGPRPQQASPPPCGGPGGPGGGPGDALGAAAAGVGAAGVVVGVGGAVGVGGCCSGPGHSKRRRQAPGVGAVGGGSPEREEVGAGYNSEDEYEAAAARIEAMDPATVEQQEHWFEKALRDKKGFIIKQMKEDGACLFRAVADQVYGDQDMHEVVRKHCMDYLMKNADYFSNYVTEDFTTYINRKRKNNCHGNHIEMQAMAEMYNRPVEVYQYSTGTSAVEPINTFHGIHQNEDEPIRVSYHRNIHYNSVVNPNKATIGVGLGLPSFKPGFAEQSLMKNAIKTSEESWIEQQMLEDKKRATDWEATNEAIEEQVARESYLQWLRDQEKQARQVRGPSQPRKASATCSSATAAASSGLEEWTSRSPRQRSSASSPEHPELHAELGMKPPSPGTVLALAKPPSPCAPGTSSQFSAGADRATSPLVSLYPALECRALIQQMSPSAFGLNDWDDDEILASVLAVSQQEYLDSMKKNKVHRDPPPDKS
Consider B2, for which, in the assay with Myc-DBC1 (human), the binding result was “binds”.

B3: endogenous OTUD5 (enzyme, UniProt Q96G74 1-571)
chain: MTILPKKKPPPPDADPANEPPPPGPMPPAPRRGGGVGVGGGGTGVGGGDRDRDSGVVGARPRASPPPQGPLPGPPGALHRWALAVPPGAVAGPRPQQASPPPCGGPGGPGGGPGDALGAAAAGVGAAGVVVGVGGAVGVGGCCSGPGHSKRRRQAPGVGAVGGGSPEREEVGAGYNSEDEYEAAAARIEAMDPATVEQQEHWFEKALRDKKGFIIKQMKEDGACLFRAVADQVYGDQDMHEVVRKHCMDYLMKNADYFSNYVTEDFTTYINRKRKNNCHGNHIEMQAMAEMYNRPVEVYQYSTGTSAVEPINTFHGIHQNEDEPIRVSYHRNIHYNSVVNPNKATIGVGLGLPSFKPGFAEQSLMKNAIKTSEESWIEQQMLEDKKRATDWEATNEAIEEQVARESYLQWLRDQEKQARQVRGPSQPRKASATCSSATAAASSGLEEWTSRSPRQRSSASSPEHPELHAELGMKPPSPGTVLALAKPPSPCAPGTSSQFSAGADRATSPLVSLYPALECRALIQQMSPSAFGLNDWDDDEILASVLAVSQQEYLDSMKKNKVHRDPPPDKS
For the molecule B3, the binding entry (with His-DBC1 (human); in assay [1]) was “binds” each time.
